Where two headings read alike, the source gives them in different places. These are yes or no findings as the source states them, for the method shown. In cells and extracts the contact can be indirect. A yes stands for co-enrichment or nearness to the bait. Other partners may have been found.
B1: OGT (O-GlcNAc transferase), endogenous in ccRCC cells (enzyme, UniProt O15294 1-1046)
chain: MASSVGNVADSTEPTKRMLSFQGLAELAHREYQAGDFEAAERHCMQLWRQEPDNTGVLLLLSSIHFQCRRLDRSAHFSTLAIKQNPLLAEAYSNLGNVYKERGQLQEAIEHYRHALRLKPDFIDGYINLAAALVAAGDMEGAVQAYVSALQYNPDLYCVRSDLGNLLKALGRLEEAKACYLKAIETQPNFAVAWSNLGCVFNAQGEIWLAIHHFEKAVTLDPNFLDAYINLGNVLKEARIFDRAVAAYLRALSLSPNHAVVHGNLACVYYEQGLIDLAIDTYRRAIELQPHFPDAYCNLANALKEKGSVAEAEDCYNTALRLCPTHADSLNNLANIKREQGNIEEAVRLYRKALEVFPEFAAAHSNLASVLQQQGKLQEALMHYKEAIRISPTFADAYSNMGNTLKEMQDVQGALQCYTRAIQINPAFADAHSNLASIHKDSGNIPEAIASYRTALKLKPDFPDAYCNLAHCLQIVCDWTDYDERMKKLVSIVADQLEKNRLPSVHPHHSMLYPLSHGFRKAIAERHGNLCLDKINVLHKPPYEHPKDLKLSDGRLRVGYVSSDFGNHPTSHLMQSIPGMHNPDKFEVFCYALSPDDGTNFRVKVMAEANHFIDLSQIPCNGKAADRIHQDGIHILVNMNGYTKGARNELFALRPAPIQAMWLGYPGTSGALFMDYIITDQETSPAEVAEQYSEKLAYMPHTFFIGDHANMFPHLKKKAVIDFKSNGHIYDNRIVLNGIDLKAFLDSLPDVKIVKMKCPDGGDNADSSNTALNMPVIPMNTIAEAVIEMINRGQIQITINGFSISNGLATTQINNKAATGEEVPRTIIVTTRSQYGLPEDAIVYCNFNQLYKIDPSTLQMWANILKRVPNSVLWLLRFPAVGEPNIQQYAQNMGLPQNRIIFSPVAPKEEHVRRGQLADVCLDTPLCNGHTTGMDVLWAGTPMVTMPGETLASRVAASQLTCLGCLELIAKNRQEYEDIAVKLGTDLEYLKKVRGKVWKQRISSPLFNTKQYTMELERLYLQMWEHYAAGNKPDHMIKPVEVTESA

By UniProt entry, the sequences of proteins in these tests, tags left out.
UniProt Q14157: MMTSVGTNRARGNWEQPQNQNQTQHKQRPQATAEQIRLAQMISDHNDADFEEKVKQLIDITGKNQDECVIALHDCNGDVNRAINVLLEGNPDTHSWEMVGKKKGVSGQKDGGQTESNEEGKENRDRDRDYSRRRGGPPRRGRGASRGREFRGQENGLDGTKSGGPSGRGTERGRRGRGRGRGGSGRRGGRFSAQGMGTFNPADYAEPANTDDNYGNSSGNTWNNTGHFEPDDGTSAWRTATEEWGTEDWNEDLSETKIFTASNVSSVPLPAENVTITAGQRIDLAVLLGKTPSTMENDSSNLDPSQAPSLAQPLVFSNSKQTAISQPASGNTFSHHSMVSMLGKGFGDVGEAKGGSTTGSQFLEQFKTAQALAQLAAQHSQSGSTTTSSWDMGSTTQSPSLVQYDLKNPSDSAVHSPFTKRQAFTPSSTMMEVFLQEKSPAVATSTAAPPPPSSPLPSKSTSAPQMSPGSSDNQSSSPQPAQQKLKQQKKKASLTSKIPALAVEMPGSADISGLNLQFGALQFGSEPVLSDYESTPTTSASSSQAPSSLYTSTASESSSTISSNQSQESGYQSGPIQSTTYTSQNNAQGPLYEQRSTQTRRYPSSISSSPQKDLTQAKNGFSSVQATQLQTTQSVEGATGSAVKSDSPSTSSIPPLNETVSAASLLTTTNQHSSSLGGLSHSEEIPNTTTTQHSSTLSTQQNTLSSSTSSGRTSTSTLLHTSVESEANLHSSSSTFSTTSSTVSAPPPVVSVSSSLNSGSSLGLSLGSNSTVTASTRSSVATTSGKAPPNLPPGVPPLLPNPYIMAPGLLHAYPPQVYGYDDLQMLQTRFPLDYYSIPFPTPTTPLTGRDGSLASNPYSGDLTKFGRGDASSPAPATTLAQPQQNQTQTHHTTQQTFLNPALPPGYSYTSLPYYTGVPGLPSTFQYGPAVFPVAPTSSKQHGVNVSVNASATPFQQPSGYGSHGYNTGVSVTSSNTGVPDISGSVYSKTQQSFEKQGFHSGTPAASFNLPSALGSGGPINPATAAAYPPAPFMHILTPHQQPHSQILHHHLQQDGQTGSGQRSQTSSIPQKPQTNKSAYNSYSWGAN
UniProt O94972: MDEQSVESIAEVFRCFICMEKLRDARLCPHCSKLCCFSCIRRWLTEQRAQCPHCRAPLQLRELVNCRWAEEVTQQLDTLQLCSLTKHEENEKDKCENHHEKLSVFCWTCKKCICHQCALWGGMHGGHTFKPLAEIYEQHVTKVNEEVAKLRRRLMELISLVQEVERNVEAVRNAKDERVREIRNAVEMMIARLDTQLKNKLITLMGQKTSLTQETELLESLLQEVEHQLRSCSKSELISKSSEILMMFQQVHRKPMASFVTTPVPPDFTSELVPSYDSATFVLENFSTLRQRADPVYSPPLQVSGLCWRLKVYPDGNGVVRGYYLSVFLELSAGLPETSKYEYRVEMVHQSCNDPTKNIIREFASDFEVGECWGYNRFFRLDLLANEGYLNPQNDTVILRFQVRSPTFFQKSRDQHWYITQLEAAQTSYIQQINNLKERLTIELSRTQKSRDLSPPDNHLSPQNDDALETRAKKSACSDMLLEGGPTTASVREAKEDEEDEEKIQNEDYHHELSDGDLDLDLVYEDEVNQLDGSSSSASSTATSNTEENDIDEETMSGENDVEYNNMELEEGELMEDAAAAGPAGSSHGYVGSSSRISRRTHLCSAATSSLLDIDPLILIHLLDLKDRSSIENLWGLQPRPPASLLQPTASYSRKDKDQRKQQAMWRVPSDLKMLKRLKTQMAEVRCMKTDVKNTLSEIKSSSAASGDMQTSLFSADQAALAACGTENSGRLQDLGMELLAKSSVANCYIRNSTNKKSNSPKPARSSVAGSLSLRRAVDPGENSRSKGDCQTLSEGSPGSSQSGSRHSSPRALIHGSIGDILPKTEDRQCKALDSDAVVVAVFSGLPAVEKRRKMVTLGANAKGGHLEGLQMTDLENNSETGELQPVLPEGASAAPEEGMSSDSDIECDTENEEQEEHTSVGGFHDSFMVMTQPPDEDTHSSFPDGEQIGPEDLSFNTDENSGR

Tests used:
[1] = molecular target: Flag-UBAP2L (ubiquitin-associated protein 2-like), expressed in 786-O cells (UniProt Q14157); test: affinity purification with mass spectrometry; Flag antibody immunoprecipitation of Flag-UBAP2L from 786-O cells; SDS-PAGE, silver staining, bands excised for MS; IgG control
[2] = molecular target: Flag-UBAP2L (ubiquitin-associated protein 2-like), expressed in 786-O cells (UniProt Q14157); test: as above; remark: listed apart in the source

Row | binding [1] | binding [2] | Molecule
1 | binds |  | TRIM37, endogenous in ccRCC cells (from UniProt O94972 1-964) (enzyme)
2 |  | binds | B1
